For ten compounds, z-score results are on record in PubChem BioAssay AID1963822 (ICCB-Longwood Screening Facility, Harvard Medical School, 2024).

The other results are listed elsewhere or left out.

The assay is described as follows: anaerobic choline-dependent bacterial growth inhibition – minimal medium, absorbance (AID 1963822). The settings on record: Gram-negative bacterium anaerobic choline minimal medium, measured here: choline growth z-score, timepoint 1, stronger effect = lower value.
`CN(C(=O)Cc1ccccc1)[C@@H]1CC[C@]2(CCCO2)C[C@H]1N1CCCC1` gave a z-score of 0.4.
To `NC(=O)Nc1ccc([As](=O)(O)O)cc1` belongs 0.27; to `CN(C(=O)Cc1ccc(Cl)c(Cl)c1)[C@@H]1CC[C@]2(CCCO2)C[C@H]1N1CCCC1`, 0.01; to `CN(C(=O)Cc1ccc(Cl)c(Cl)c1)[C@@H]1CCCC[C@H]1N1CCCC1`, -0.18.
`CN(C)CCS` registered a z-score of -1.54.
`O=C(O[C@H]1CN2CCC1CC2)C1NCc2ccccc2[C@@H]1c1ccccc1` (stereo not given in full) gave a z-score of 0.6.
The compound `O=P(O)(O)F` displayed a z-score of 0.2.
On to `C/C1=C2N=C(/C=C3N=C(/C(C)=C4\[N-][C@@](C)([C@@H]5N=C1[C@](C)(CCC(=O)NC[C@@H](C)OP(=O)([O-])O[C@H]1[C@@H](O)[C@@H](n6cnc7cc(C)c(C)cc76)O[C@@H]1CO)[C@H]5CC(N)=O)[C@@](C)(CC(N)=O)[C@@H]4CCC(N)=O)[C@@](C)(CC(N)=O)[C@@H]\3CCC(N)=O)C(C)(C)[C@@H]/2CCC(N)=O.[C-]#N.[Co+3]`, for which the z-score was 0.39.
`CN(C(=O)Cc1ccc(Cl)c(Cl)c1)[C@@H]1CCCC[C@@H]1N1CCCC1`: the z-score was -0.31.
To `O=C(OC1CN2CCC1CC2)c1ccccc1` (stereo not given) belongs 0.18.
